Test results taken from the supplement of paper PMC10849652.
This is one part of the list.

By UniProt entry, the sequences of proteins in these tests, tags left out. Where a name states a change or a piece, a line headed by the entry shows the natural chain unless it says otherwise.
UniProt Q04771: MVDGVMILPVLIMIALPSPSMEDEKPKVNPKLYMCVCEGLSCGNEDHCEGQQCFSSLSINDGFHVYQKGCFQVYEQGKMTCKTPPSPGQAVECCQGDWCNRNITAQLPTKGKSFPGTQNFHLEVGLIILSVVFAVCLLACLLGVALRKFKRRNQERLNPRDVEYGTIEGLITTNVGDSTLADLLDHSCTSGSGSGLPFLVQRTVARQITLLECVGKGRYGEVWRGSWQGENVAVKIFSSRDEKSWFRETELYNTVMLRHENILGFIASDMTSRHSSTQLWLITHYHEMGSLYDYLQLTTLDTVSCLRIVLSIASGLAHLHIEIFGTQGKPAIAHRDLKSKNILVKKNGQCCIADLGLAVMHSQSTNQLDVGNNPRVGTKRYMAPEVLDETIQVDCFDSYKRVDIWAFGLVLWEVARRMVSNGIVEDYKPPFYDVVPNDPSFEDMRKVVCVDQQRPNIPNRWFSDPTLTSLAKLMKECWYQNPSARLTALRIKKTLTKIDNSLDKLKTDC
UniProt P53396: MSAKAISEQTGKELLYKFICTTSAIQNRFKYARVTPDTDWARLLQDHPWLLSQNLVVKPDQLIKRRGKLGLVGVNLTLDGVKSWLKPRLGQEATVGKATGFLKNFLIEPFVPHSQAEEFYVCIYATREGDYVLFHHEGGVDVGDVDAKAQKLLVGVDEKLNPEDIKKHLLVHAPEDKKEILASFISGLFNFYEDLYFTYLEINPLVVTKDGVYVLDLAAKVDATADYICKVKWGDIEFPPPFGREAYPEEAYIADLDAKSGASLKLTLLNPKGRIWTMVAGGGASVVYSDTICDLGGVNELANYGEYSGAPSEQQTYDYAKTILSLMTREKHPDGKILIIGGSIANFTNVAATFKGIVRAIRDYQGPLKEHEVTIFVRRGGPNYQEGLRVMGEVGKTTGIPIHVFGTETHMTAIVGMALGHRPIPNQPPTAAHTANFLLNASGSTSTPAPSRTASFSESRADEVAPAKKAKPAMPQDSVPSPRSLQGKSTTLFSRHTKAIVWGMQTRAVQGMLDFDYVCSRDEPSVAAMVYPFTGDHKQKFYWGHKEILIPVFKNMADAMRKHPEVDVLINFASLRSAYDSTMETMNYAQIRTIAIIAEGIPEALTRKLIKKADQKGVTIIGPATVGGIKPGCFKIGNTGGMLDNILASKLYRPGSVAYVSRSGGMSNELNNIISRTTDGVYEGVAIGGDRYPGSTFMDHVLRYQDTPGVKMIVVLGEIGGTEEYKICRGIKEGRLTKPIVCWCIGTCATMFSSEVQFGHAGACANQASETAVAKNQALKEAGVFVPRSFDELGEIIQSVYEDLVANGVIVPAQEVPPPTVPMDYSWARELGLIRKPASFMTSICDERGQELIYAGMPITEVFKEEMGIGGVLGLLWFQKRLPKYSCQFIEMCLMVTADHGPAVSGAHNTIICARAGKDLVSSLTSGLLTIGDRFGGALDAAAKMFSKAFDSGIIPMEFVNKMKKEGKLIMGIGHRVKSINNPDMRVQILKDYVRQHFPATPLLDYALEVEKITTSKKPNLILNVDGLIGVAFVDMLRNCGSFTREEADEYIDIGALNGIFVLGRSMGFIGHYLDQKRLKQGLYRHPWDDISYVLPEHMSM
UniProt Q86V21: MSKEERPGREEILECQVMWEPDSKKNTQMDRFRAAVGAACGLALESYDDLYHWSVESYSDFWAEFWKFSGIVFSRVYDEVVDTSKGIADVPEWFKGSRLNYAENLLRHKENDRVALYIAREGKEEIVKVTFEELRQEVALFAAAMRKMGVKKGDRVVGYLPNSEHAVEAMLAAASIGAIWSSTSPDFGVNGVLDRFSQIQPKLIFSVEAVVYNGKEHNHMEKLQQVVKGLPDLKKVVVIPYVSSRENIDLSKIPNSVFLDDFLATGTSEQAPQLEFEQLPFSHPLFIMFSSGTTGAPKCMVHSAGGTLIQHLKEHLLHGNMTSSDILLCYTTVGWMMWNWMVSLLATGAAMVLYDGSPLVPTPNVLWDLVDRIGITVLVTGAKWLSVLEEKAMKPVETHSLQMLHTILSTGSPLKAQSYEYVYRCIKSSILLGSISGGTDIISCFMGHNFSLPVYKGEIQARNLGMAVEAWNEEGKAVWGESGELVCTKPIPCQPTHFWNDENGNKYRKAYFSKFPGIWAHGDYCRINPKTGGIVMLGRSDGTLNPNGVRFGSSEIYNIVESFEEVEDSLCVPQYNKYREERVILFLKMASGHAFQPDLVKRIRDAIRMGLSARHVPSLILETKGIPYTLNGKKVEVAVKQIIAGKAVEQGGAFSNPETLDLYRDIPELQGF
UniProt O95342, whole entry, looked up: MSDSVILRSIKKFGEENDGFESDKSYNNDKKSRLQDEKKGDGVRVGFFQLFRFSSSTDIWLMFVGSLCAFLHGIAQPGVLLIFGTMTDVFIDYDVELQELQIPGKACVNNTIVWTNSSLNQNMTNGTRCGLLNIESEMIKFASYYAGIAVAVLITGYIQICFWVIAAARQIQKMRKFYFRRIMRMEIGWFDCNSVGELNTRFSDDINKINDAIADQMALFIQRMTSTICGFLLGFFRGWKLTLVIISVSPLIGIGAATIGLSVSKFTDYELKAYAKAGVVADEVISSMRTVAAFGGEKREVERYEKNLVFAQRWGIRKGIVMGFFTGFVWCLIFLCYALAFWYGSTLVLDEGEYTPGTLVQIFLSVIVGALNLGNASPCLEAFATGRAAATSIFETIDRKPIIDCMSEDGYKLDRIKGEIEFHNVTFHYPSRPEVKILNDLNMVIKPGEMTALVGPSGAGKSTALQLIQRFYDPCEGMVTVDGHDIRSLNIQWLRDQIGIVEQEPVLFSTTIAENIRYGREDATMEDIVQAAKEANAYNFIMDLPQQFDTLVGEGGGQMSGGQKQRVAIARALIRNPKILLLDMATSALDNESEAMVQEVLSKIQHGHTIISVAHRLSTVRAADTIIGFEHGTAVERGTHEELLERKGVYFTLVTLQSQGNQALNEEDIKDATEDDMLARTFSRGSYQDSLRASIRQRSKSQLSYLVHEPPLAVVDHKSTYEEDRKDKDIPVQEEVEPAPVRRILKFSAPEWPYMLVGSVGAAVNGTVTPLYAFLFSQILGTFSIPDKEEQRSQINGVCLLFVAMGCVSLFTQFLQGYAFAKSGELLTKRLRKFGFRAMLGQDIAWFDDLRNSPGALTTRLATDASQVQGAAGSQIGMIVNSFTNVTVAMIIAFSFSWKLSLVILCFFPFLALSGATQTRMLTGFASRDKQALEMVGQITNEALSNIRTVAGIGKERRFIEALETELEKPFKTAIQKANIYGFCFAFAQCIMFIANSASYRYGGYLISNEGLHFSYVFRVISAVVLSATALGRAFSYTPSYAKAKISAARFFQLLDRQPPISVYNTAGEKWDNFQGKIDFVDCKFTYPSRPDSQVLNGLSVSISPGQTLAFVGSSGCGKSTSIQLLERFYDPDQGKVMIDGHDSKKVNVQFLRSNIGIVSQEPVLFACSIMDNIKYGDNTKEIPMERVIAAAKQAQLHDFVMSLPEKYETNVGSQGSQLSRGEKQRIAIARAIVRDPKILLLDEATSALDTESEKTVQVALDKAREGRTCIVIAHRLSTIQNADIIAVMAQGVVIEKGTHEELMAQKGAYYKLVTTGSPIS
UniProt Q5VST6: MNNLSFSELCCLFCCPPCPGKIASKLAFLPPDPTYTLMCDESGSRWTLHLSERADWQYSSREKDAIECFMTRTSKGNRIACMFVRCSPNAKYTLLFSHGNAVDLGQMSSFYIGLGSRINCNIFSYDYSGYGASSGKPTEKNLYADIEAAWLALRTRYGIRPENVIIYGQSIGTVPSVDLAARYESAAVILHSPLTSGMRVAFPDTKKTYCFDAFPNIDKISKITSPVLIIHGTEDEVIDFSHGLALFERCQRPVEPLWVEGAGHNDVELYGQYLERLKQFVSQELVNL
UniProt Q15067: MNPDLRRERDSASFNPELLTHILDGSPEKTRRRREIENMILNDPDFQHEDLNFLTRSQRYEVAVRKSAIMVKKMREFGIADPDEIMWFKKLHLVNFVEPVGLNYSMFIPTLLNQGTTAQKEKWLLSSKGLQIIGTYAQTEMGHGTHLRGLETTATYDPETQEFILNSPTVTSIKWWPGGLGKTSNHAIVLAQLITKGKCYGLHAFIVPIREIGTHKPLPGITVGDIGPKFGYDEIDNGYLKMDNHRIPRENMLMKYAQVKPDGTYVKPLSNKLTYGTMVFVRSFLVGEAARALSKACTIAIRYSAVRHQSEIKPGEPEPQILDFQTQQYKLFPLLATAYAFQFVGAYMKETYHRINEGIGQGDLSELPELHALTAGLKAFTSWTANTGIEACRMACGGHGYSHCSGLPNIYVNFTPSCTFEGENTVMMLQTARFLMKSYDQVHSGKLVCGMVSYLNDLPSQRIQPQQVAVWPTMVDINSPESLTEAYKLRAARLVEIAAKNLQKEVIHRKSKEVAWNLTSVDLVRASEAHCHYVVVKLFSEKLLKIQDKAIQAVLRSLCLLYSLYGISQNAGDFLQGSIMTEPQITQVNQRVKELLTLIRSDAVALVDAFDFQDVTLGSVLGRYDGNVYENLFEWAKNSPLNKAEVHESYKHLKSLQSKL
UniProt P78325: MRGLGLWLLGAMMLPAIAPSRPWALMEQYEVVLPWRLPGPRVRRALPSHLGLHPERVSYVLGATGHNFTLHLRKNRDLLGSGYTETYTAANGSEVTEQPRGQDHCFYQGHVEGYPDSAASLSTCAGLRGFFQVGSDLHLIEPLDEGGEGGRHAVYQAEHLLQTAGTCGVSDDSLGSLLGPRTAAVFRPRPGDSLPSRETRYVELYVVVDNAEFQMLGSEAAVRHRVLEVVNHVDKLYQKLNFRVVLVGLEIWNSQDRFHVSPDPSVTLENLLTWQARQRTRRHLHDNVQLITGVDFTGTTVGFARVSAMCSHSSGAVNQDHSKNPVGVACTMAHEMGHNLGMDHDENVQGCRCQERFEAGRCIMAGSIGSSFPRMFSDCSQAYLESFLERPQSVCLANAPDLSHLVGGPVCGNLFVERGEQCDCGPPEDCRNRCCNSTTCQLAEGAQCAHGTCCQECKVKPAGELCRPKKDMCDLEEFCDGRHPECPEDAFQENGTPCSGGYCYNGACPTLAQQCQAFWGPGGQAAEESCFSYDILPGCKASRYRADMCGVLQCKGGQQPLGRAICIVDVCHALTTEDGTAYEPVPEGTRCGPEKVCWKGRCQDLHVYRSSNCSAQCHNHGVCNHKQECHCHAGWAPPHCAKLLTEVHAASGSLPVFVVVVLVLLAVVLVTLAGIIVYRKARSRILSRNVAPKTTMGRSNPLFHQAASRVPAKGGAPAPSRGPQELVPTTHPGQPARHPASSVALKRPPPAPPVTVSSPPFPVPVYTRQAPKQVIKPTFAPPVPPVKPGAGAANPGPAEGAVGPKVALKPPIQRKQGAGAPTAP
UniProt Q96QU6: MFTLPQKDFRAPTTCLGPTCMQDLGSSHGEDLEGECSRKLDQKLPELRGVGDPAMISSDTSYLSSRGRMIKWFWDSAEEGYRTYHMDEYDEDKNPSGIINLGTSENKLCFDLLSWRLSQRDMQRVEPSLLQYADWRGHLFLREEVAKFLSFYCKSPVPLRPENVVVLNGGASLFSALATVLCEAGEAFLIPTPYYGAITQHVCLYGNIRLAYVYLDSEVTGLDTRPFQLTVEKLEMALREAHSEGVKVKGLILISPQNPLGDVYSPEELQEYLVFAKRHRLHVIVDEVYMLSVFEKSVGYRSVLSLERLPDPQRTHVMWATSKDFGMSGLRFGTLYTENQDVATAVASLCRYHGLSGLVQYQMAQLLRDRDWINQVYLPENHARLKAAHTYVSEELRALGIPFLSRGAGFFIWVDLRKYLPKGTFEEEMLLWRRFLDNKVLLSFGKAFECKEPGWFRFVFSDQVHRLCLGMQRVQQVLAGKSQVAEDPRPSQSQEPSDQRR
UniProt P80404: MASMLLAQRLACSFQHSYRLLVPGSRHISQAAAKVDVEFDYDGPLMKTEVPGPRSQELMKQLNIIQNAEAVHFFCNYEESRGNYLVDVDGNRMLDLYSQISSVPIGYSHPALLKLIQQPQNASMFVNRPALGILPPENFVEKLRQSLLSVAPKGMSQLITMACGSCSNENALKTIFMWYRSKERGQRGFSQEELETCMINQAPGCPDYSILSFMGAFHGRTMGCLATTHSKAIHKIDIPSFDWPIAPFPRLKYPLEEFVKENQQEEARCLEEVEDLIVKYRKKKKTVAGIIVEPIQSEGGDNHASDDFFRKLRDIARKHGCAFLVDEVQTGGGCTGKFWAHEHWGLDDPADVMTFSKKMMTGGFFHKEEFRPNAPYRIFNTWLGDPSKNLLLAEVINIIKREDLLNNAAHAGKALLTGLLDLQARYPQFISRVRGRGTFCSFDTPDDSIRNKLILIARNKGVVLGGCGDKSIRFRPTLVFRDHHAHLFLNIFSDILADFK

Experiments:
Test in all cases: log2 fold change, soluble protein after heating vs DMSO (PISA); higher = thermal stabilisation; K562 cells, 10 uM, 30 min; active = over 0.2 and 3.5 SD of the protein, either way, in both replicates (recomputed)
[1] = compound: CS(=O)(=O)c1ccc(-c2cnc(N)c(C(=O)Nc3ccccc3)n2)cc1
Method in brief: (§1)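 Quantification of soluble protein used TMTpro 16plex LC-MS/MS, with channel sums equalised. Samples were the supernatant after 21,000xg for 90 min of pooled aliquots from K562 cells (2×10^6 cells/mL) treated with 10 μM compound for 30 min, heated for 3 min over 48°C-58°C, and extracted in PBS with 0.5% NP-40 at 4°C. Values, from duplicates, describe thermal stability against control samples on a log2 fold-change scale.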

[2] = compound: C[C@@H]1COCCN1C2=NC(=NC(=C2)C3(CC3)S(=O)(=O)C)C4=C5C=CNC5=CC=C4
Method in brief: as §1

[3] = compound: C[C@H](C1=CC=C(C=C1)C(=O)NC2=C3C=CNC3=NC=C2)N
Method in brief: as §1

duvelisib = compound: C[C@H](Nc1ncnc2nc[nH]c12)c1cc2cccc(Cl)c2c(=O)n1-c1ccccc1 [duvelisib]
Method in brief: as §1

gandotinib = compound: Cc1cc(Nc2cc(CN3CCOCC3)c3nc(C)c(Cc4ccc(Cl)cc4F)n3n2)n[nH]1 [gandotinib]
Method in brief: as §1

[4] = compound: Cc1cc(SCc2sc(-c3ccc(C(F)(F)F)cc3)nc2C)ccc1OCC(=O)O
Method in brief: as §1

ispinesib = compound: Cc1ccc(C(=O)N(CCCN)[C@@H](c2nc3cc(Cl)ccc3c(=O)n2Cc2ccccc2)C(C)C)cc1 [ispinesib]
Method in brief: as §1

[5] = compound: Cc1cccc(CC(=O)N2CCc3c2ccc(-c2cn(C)c4ncnc(N)c24)c3F)n1
Method in brief: as §1

[6] = compound: Cn1cc(-c2ccc3c(c2)CCN3C(=O)Cc2cccc(C(F)(F)F)c2)c2c(N)ncnc21
Method in brief: as §1

[7] = compound: Cn1cc(-c2ccc3nnc(C(F)(F)c4ccc5ncccc5c4)n3n2)cn1
Method in brief: as §1

tipifarnib = compound: Cn1cncc1[C@@](N)(c1ccc(Cl)cc1)c1ccc2c(c1)c(-c1cccc(Cl)c1)cc(=O)n2C [tipifarnib]
Method in brief: as §1

mubritinib = compound: FC(F)(F)c1ccc(/C=C/c2nc(COc3ccc(CCCCn4ccnn4)cc3)co2)cc1 [mubritinib]
Method in brief: as §1

dasatinib = compound: Cc1nc(Nc2ncc(C(=O)Nc3c(C)cccc3Cl)s2)cc(N2CCN(CCO)CC2)n1 [dasatinib]
Method in brief: as §1

crizotinib = compound: C[C@@H](Oc1cc(-c2cnn(C3CCNCC3)c2)cnc1N)c1c(Cl)ccc(F)c1Cl [crizotinib]
Method in brief: as §1

doramapimod = compound: Cc1ccc(-n2nc(C(C)(C)C)cc2NC(=O)Nc2ccc(OCCN3CCOCC3)c3ccccc23)cc1 [doramapimod]
Method in brief: as §1

nilotinib = compound: Cc1cn(-c2cc(NC(=O)c3ccc(C)c(Nc4nccc(-c5cccnc5)n4)c3)cc(C(F)(F)F)c2)cn1 [nilotinib]
Method in brief: as §1

[8] = compound: Cc1nc(Nc2n[nH]c3c2CN(C(=O)N[C@H](CN(C)C)c2ccccc2)C3(C)C)c2sccc2n1
Method in brief: as §1

[9] = compound: Cc1ncc(-c2ccnc(Nc3ccc(S(C)(=O)=O)cc3)n2)n1C(C)C
Method in brief: as §1

bafetinib = compound: Cc1ccc(NC(=O)c2ccc(CN3CC[C@H](N(C)C)C3)c(C(F)(F)F)c2)cc1Nc1nccc(-c2cncnc2)n1 [bafetinib]
Method in brief: as §1

tozasertib = compound: Cc1cc(Nc2cc(N3CCN(C)CC3)nc(Sc3ccc(NC(=O)C4CC4)cc3)n2)n[nH]1 [tozasertib]
Method in brief: as §1

Measured: log2 fold change

ABL1 isoform 2 (UniProt P00519)
inactive: [1] -0.054 | [2] -0.191 | [3] 0.235 | duvelisib -0.128 | gandotinib 0.047 | [4] 0.048 | ispinesib -0.043 | [5] 0.038 | [6] 0.011 | [7] -0.102 | tipifarnib 0.028 | mubritinib -0.067

ACVR1 (UniProt Q04771)
inactive: [1] 0.38 | [2] 0.04 | gandotinib 0.109 | [4] -0.061 | [5] -0.068 | dasatinib 0.041 | [6] 0.029 | tipifarnib -0.006 | mubritinib -0.124
active: [3] 0.642

ACTR3B (UniProt Q9P1U1)
inactive: crizotinib -0.005 | gandotinib 0.024 | doramapimod 0.158 | ispinesib -0.069 | [5] 0.035 | nilotinib 0.036 | [8] -0.082 | [9] -0.001 | [7] -0.051 | tipifarnib 0.129

ABCB5 (UniProt Q2M3G0)
inactive: bafetinib -0.022 | nilotinib -0.027 | [8] -0.041 | [9] 0.108

ACLY isoform 2 (UniProt P53396)
inactive: [1] 0.048 | [2] -0.104 | tozasertib 0.048 | ispinesib -0.084 | bafetinib -0.08 | nilotinib -0.108 | [8] -0.058 | [9] 0.014 | [7] -0.116 | tipifarnib 0.147 | mubritinib -0.306

AACS (UniProt Q86V21)
inactive: [2] -0.312 | ispinesib -0.182 | [7] -0.115

ACTB, A0A2R8YGF8
inactive: mubritinib -1.16

ABCC10 (UniProt Q5T3U5)
inactive: [1] 0.046 | [2] 0.047 | duvelisib 0.151 | gandotinib 0.05 | tozasertib -0.035 | [4] 0.235 | ispinesib -0.39 | bafetinib 0.024 | [5] -0.034 | nilotinib -0.14 | [8] -0.238 | dasatinib 0.05 | [9] -0.187 | [7] 0 | tipifarnib -0.013

ACTB, A0A2R8YEA7
inactive: [1] 0.207 | [3] 0.086 | duvelisib 0.152 | tozasertib 0.027 | [4] 0.048 | ispinesib 0.049 | bafetinib -0.02 | nilotinib 0.024 | [8] -0.371 | dasatinib 0.087 | [9] 0.044 | [6] -0.552 | [7] -0.069 | mubritinib 0.13

ABCB11 (UniProt O95342)
inactive: [1] 0.081 | [3] 0.205 | tozasertib -0.308 | ispinesib 0.017 | [6] 0.025 | [7] -0.013 | tipifarnib 0.073 | mubritinib 0.065

2 entries picked at random from the list so far, as already listed:
ACLY isoform 2 (UniProt P53396)
inactive: [1] 0.048 | [2] -0.104 | tozasertib 0.048 | ispinesib -0.084 | bafetinib -0.08 | nilotinib -0.108 | [8] -0.058 | [9] 0.014 | [7] -0.116 | tipifarnib 0.147 | mubritinib -0.306

ABCC10 (UniProt Q5T3U5)
inactive: [1] 0.046 | [2] 0.047 | duvelisib 0.151 | gandotinib 0.05 | tozasertib -0.035 | [4] 0.235 | ispinesib -0.39 | bafetinib 0.024 | [5] -0.034 | nilotinib -0.14 | [8] -0.238 | dasatinib 0.05 | [9] -0.187 | [7] 0 | tipifarnib -0.013

(listing goes on)

ABHD17B (UniProt Q5VST6)
inactive: crizotinib -0.075 | [2] 0.053 | [3] -0.028 | duvelisib -0.024 | gandotinib 0.069 | tozasertib 0.009 | [4] -0.021 | doramapimod -0.018 | ispinesib -0.014 | bafetinib 0.041 | [5] -0.012 | nilotinib 0.198 | [8] 0.01 | dasatinib -0.027 | [9] -0.086 | [6] 0.052 | [7] 0 | tipifarnib 0.024 | mubritinib 0.021

ABCE1 (UniProt H0Y990)
inactive: [1] -0.028 | [2] 0.036 | [3] -0.105 | duvelisib 0.129 | gandotinib -0.203 | tozasertib -0.015 | [4] -0.147 | bafetinib 0.095 | [5] -0.107 | nilotinib -0.147 | [8] 0.137 | dasatinib 0.035 | [9] -0.142 | [6] -0.005 | tipifarnib -0.013 | mubritinib 0

ACOX1 isoform 3 (UniProt Q15067)
inactive: crizotinib 0.053 | tozasertib -0.246 | doramapimod 0.12

ADAM8 (UniProt P78325)
inactive: crizotinib -0.003 | [2] -0.025 | doramapimod 0.083

ACTG1 (UniProt I3L4N8)
inactive: duvelisib 1.03 | [4] 1.03 | ispinesib -0.012 | nilotinib 0.261 | [8] -0.059 | dasatinib -0.094 | [9] -0.005 | [7] 0.055 | mubritinib -0.133

ACCS (UniProt Q96QU6)
inactive: [2] -0.15 | [3] -0.06 | gandotinib 0.029 | tozasertib -0.118 | ispinesib 0.004 | bafetinib 0.022 | [5] -0.143 | nilotinib -0.005 | [8] 0.015 | [9] -0.036 | [6] 0.15 | [7] 0.029 | mubritinib 0

ABAT (UniProt P80404)
inactive: [2] -0.108
